The target in this assay is T1, unphospho-PtsNHis (unphosphorylated PtsN with a C-terminal hexahistidine tag) (E. coli) (UniProt P69829).
T1 sequence: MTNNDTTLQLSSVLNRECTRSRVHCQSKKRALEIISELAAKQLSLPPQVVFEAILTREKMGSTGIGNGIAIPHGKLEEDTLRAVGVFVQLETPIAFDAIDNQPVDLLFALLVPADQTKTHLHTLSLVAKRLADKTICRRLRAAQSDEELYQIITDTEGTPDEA
Briefly: condition: 25 μg of the purified His-tagged protein added to the lysate; pull-down; co-purification: 25 μg purified C-terminally His6-tagged protein added to DDM-solubilised lysate of cells expressing the 3x FLAG tagged protein, Ni-NTA beads, 4 °C, 2.5 h; buffer A (20 mM Tris-Cl pH 8.0, 200 mM NaCl, 10% glycerol, 5 mM BME) with 3 mM DDM; elution with 300 mM imidazole; anti-FLAG and anti-His immunoblots; only the target purified. In general terms: Immunoblotting shows a protein as a band on a membrane.

These are yes or no findings as the source states them, for the method shown. In cells and extracts the contact can be indirect. Sequences can lack the tags named with a protein.

B1: DsbB with a C-terminal 3x FLAG tag (disulfide oxidoreductase, inner membrane protein) (protein, UniProt P0A6M2 1-176)
chain: MLRFLNQCSQGRGAWLLMAFTALALELTALWFQHVMLLKPCVLCIYERCALFGVLGAALIGAIAPKTPLRYVAMVIWLYSAFRGVQLTYEHTMLQLYPSPFATCDFMVRFPEWLPLDKWVPQVFVASGDCAERQWDFLGLEMPQWLLGIFIAYLIVAVLVVISQPFKAKKRDLFGR
Consider B1, for which the binding result was “no binding”.

The values are drawn from PMC11808508.
